Here are results for one substance from paper PMC2279130.

The chains behind the UniProt entries cited, without tags or fusion partners.
UniProt P27449: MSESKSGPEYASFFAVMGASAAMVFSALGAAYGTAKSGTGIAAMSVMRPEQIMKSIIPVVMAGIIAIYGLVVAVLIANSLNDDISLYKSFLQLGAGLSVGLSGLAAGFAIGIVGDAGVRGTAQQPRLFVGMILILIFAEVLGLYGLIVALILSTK

Common to all, as to experiment: pull-down; flag-tagged ATP6V0C and GST-tagged RNF182 constructs co-transfected in HEK-293; extracts incubated with glutathione-sepharose beads overnight at 4°C, washed four times with PBST (1% Triton X-100 in PBS); Western blot with anti-flag and anti-GST
Assay [1] deals with T1, GST-RNF182 C-end domain (human) (UniProt Q8N6D2).
T1 sequence: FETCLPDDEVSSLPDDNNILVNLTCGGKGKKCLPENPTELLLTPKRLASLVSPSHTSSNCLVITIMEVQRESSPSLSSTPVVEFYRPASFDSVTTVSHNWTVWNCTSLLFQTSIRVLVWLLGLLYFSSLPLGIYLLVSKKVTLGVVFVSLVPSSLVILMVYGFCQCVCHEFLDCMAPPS

Assay [2] addresses T2, GST-RNF182 RING finger domain (human) (UniProt Q8N6D2).
T2 sequence: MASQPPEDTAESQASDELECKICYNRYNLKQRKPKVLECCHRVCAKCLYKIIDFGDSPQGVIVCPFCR

Assay [3] deals with T3, GST-RNF182 full length (human) (UniProt Q8N6D2).
T3 sequence: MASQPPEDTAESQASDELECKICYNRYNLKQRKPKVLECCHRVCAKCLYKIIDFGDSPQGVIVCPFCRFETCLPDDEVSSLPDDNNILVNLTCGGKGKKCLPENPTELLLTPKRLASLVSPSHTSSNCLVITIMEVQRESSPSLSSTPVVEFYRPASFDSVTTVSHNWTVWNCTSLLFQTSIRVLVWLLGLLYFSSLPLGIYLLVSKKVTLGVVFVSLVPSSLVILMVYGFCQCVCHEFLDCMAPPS

No constants are given. Whether binding was seen depends on the method and setting. In cells and extracts the contact can be indirect. Some binding calls cover weakened binding; strength is not graded here. Where a sequence is shown, tags or fusion partners need not be part of it.

With “flag-tagged ATP6V0C (from UniProt P27449 1-155)”, the binding entry in assay [1] is “binds”; in assay [2], “no binding”; in assay [3], “binds”.
